IC50 and Ki data for three molecules are collected here from ChEMBL document CHEMBL1909046, “DrugMatrix in vitro pharmacology data”.

Amino acid sequences for entries named in this document (tags omitted). A change or cut given only in a name is not applied to a line headed by its entry.
UniProt P21554, whole entry: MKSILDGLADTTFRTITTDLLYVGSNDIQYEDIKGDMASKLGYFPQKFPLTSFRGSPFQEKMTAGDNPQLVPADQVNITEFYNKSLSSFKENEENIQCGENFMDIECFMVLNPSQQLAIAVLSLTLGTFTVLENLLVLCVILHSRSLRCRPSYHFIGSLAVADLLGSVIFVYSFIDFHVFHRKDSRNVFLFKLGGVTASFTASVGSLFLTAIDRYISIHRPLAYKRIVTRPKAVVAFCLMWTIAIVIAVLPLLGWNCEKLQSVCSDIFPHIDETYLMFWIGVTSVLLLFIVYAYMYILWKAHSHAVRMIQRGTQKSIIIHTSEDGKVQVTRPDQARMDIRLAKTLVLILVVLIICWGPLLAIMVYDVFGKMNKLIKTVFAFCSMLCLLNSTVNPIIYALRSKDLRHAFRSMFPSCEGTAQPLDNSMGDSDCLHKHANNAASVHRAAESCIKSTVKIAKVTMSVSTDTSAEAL
UniProt P25021, whole entry: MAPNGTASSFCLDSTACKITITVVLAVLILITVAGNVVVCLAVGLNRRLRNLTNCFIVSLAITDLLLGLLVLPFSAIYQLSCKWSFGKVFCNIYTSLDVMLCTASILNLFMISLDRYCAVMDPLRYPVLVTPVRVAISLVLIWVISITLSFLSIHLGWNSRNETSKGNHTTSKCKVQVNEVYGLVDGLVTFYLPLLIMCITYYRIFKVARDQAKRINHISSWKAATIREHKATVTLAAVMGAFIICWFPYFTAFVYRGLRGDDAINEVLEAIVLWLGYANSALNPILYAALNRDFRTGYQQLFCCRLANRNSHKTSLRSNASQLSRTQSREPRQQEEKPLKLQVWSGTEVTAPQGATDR
UniProt P33032: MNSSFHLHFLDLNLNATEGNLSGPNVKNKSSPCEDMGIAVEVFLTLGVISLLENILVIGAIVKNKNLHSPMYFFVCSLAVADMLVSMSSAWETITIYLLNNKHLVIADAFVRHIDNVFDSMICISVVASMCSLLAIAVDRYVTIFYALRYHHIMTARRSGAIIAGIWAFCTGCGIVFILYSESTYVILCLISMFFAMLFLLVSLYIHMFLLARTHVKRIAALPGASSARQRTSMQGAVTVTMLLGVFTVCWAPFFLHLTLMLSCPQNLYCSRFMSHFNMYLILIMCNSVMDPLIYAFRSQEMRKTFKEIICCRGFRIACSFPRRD
UniProt P25105: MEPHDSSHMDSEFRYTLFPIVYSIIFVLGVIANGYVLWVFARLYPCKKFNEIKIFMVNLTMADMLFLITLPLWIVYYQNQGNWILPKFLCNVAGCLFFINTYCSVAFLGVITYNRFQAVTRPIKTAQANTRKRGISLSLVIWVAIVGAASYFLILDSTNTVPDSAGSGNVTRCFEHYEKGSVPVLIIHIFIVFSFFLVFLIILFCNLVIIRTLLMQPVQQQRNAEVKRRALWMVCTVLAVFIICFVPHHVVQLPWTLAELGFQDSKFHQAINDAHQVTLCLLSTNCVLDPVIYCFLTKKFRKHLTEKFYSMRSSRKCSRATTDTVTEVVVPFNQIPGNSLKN
UniProt P41968: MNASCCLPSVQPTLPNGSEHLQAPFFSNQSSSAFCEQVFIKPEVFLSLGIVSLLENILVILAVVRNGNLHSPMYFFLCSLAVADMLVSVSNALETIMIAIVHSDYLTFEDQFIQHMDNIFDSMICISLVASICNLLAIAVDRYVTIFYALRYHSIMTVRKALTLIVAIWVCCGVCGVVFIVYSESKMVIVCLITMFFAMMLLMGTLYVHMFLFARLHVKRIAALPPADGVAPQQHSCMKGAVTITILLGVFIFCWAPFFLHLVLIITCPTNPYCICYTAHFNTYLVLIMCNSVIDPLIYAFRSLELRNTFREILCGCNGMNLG

Experiment [1] has as its target T1, Receptor-type tyrosine-protein phosphatase C (Homo sapiens, UniProt P08575).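 Note: inhibition of CD45 enzyme activity measured using DiFMUP as substrate.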
T1 sequence (P08575 whole entry): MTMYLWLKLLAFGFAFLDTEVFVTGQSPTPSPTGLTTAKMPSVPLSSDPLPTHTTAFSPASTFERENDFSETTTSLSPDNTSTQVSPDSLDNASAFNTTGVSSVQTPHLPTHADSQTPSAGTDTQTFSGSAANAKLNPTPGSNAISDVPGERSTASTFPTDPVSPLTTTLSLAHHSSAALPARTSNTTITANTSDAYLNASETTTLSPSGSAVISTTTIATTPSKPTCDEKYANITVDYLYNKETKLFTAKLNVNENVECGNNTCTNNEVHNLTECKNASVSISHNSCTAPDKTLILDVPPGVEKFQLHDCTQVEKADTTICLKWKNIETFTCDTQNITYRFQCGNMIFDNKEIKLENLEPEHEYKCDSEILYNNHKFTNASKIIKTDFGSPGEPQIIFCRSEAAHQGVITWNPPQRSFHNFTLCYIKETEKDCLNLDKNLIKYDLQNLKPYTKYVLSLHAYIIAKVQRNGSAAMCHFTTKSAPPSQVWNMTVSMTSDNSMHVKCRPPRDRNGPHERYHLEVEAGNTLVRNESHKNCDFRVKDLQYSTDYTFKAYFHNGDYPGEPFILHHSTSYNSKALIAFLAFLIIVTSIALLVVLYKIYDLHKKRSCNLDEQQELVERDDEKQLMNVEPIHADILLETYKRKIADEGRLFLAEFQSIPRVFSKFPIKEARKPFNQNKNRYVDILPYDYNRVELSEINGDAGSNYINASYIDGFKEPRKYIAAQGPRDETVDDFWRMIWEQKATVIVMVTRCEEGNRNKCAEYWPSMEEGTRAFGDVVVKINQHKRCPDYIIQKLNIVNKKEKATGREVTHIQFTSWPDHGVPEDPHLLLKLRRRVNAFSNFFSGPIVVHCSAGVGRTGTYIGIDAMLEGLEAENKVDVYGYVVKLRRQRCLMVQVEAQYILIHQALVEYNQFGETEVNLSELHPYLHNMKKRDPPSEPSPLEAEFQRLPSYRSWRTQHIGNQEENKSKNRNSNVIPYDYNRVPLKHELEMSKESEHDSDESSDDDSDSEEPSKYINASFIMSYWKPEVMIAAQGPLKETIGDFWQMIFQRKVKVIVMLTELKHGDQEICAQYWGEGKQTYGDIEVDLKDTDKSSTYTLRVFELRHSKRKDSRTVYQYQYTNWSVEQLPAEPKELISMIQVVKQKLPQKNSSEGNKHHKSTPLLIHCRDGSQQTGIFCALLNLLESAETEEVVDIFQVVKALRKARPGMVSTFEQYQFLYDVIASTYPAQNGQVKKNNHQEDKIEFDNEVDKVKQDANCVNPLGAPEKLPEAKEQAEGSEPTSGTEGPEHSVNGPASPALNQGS
Also on record: species or system Escherichia coli.

For another experiment, the target named is Cannabinoid receptor 1 (Homo sapiens, UniProt P21554). The format is cell membranes, Membrane. The conditions noted are these: chem-1.
In another experiment the target is Histamine H2 receptor (Homo sapiens, UniProt P25021). The format is cell membranes, CHO-K1, Membrane.
Experiment [2] concerns the target T2, Polyunsaturated fatty acid lipoxygenase ALOX15 (Oryctolagus cuniculus, UniProt P12530).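 Note: inhibition of 15-lipoxygenase enzyme activity measured with linoleic acid as the substrate.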
T2 sequence (P12530 whole entry): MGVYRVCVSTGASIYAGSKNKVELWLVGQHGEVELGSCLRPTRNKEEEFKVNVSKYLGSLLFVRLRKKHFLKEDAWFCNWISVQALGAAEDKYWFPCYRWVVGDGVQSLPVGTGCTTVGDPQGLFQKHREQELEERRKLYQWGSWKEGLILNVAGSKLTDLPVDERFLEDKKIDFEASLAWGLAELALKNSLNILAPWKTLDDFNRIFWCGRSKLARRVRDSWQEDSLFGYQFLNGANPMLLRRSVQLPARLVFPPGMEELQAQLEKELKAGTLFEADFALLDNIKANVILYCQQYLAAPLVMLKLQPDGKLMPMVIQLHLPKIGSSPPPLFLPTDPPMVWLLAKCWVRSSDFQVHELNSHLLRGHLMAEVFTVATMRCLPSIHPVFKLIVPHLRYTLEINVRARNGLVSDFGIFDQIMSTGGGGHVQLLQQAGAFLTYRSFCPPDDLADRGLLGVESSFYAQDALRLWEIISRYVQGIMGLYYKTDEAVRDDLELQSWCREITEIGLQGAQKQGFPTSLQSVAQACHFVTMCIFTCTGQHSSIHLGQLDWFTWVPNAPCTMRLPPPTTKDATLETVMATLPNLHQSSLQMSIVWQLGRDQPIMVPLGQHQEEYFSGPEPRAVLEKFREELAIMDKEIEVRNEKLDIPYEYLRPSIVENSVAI
The format is tissue-based. The settings on record: reticulocytes.

The target in a further experiment is Melanocortin receptor 5 (Homo sapiens, UniProt P33032). The format is cell membranes, Membrane. The settings on record: hek293.
The target of experiment [3] is Platelet-activating factor receptor (Homo sapiens, UniProt P25105). The format is tissue-based.
A further experiment has as its target Melanocortin receptor 3 (Homo sapiens, UniProt P41968). The format is cell membranes, Membrane. The conditions noted are these: hek293.

The structures appear in SMILES notation.

In general, IC50 refers to the concentration that gives 50% inhibition. By Ki is commonly meant the equilibrium dissociation constant of an inhibitor or competing ligand from its target.
Note: in other assays of this panel Not Active means under 50% inhibition at 10 µM.

With `Clc1ccc(CSC(Cn2ccnc2)c2ccc(Cl)cc2Cl)cc1` (configuration not stated) [SULCONAZOLE], the IC50 result (in experiment [1]; against Cannabinoid receptor 1; against Histamine H2 receptor (cho-k1); in experiment [2]; against Melanocortin receptor 5; in experiment [3]) was “Not Active” in each case. The IC50 result against Melanocortin receptor 3 is listed as “Not Active”.
In the case of `CCN(CC)CCOC(=O)C1(C2CCCCC2)CCCCC1` [DICYCLOMINE], the IC50 result is “Not Active” in experiment [1]; “Not Active” against Cannabinoid receptor 1; 1.62 µM at Histamine H2 receptor (read-out: IC50); “Not Active” in experiment [2]; “Not Active” against Melanocortin receptor 5; “Not Active” in experiment [3]. The IC50 entry on Melanocortin receptor 3 is listed as “Not Active”. The molecule further displayed a Ki on Histamine H2 receptor of 1.6 µM.
For the molecule `CN(C)CCN(Cc1cccs1)c1ccccn1`, the IC50 result (in experiment [1]; against Cannabinoid receptor 1; against Histamine H2 receptor (cho-k1); in experiment [2]; against Melanocortin receptor 5; in experiment [3]) was “Not Active” throughout. For the same molecule, on Melanocortin receptor 3, the IC50 result is listed as “Not Active”.
